Measurements as given in paper PMC6521037.
These are yes or no findings as the source states them, for the method shown. In cells and extracts the contact can be indirect. Some binding calls cover weakened binding; strength is not graded here.

Amino acid sequences for entries named in this document (tags omitted).
UniProt Q9HAU4: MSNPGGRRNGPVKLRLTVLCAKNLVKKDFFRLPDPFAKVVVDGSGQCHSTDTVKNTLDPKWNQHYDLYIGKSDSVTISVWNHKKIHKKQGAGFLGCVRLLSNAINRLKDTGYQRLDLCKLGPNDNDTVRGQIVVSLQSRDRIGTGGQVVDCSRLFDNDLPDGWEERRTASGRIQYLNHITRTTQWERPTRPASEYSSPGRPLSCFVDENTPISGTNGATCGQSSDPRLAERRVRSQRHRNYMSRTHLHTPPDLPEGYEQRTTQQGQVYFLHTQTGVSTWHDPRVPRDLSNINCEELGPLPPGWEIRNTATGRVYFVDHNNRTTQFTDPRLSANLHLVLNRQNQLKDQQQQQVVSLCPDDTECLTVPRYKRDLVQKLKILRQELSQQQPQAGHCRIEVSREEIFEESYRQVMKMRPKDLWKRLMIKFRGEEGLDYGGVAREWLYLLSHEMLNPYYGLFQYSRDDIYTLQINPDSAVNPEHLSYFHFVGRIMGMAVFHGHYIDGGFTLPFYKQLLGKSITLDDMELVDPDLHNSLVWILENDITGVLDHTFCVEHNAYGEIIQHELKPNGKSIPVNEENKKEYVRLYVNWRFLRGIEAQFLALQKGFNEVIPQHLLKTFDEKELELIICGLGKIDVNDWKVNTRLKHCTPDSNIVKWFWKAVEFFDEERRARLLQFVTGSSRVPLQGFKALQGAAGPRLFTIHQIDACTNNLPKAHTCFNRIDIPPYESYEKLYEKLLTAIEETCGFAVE
UniProt P63104: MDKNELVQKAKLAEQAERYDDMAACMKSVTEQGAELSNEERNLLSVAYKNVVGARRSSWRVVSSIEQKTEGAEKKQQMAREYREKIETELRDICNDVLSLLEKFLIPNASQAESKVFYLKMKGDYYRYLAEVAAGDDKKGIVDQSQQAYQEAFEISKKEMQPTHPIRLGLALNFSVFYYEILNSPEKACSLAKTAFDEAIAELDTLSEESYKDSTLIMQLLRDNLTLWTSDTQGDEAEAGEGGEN
UniProt P62258: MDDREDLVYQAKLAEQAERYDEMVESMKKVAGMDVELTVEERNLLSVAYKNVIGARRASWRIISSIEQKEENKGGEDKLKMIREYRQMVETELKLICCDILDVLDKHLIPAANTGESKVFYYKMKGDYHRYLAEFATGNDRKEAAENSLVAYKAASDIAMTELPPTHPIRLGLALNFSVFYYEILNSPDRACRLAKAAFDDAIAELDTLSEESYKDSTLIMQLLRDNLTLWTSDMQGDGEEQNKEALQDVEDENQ
UniProt P31946: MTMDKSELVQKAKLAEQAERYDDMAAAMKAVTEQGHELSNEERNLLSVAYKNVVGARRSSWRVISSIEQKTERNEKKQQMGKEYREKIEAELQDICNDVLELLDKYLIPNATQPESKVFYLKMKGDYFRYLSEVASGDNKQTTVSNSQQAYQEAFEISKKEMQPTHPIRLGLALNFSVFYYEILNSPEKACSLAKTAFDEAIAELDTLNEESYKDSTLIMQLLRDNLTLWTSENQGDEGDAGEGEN

B1: 14-3-3 gamma (protein, UniProt P61981 1-247)
chain: MVDREQLVQKARLAEQAERYDDMAAAMKNVTELNEPLSNEERNLLSVAYKNVVGARRSSWRVISSIEQKTSADGNEKKIEMVRAYREKIEKELEAVCQDVLSLLDNYLIKNCSETQYESKVFYLKMKGDYYRYLAEVATGEKRATVVESSEKAYSEAHEISKEHMQPTHPIRLGLALNYSVFYYEIQNAPEQACHLAKTAFDDAIAELDTLNEDSYKDSTLIMQLLRDNLTLWTSDQQDDDGGEGNN
B2: 14-3-3 η (protein, UniProt Q04917 1-246)
chain: MGDREQLLQRARLAEQAERYDDMASAMKAVTELNEPLSNEDRNLLSVAYKNVVGARRSSWRVISSIEQKTMADGNEKKLEKVKAYREKIEKELETVCNDVLSLLDKFLIKNCNDFQYESKVFYLKMKGDYYRYLAEVASGEKKNSVVEASEAAYKEAFEISKEQMQPTHPIRLGLALNFSVFYYEIQNAPEQACLLAKQAFDDAIAELDTLNEDSYKDSTLIMQLLRDNLTLWTSDQQDEEAGEGN
B3: 14-3-3 theta (protein, UniProt P27348 1-245)
chain: MEKTELIQKAKLAEQAERYDDMATCMKAVTEQGAELSNEERNLLSVAYKNVVGGRRSAWRVISSIEQKTDTSDKKLQLIKDYREKVESELRSICTTVLELLDKYLIANATNPESKVFYLKMKGDYFRYLAEVACGDDRKQTIDNSQGAYQEAFDISKKEMQPTHPIRLGLALNFSVFYYEILNNPELACTLAKTAFDEAIAELDTLNEDSYKDSTLIMQLLRDNLTLWTSDSAGEECDAAEGAEN

These molecules were tested against SMURF2 (endogenous) (human (endogenous in MCF7 and MCF10A)) (UniProt Q9HAU4) (assay: co-IP; endogenous proteins in MCF7 and MCF10A lysates (1% NP-40 buffer, 500 μg); anti-SMURF2 antibody (sc-25511) or rabbit IgG control overnight at 4 °C, Protein G-Sepharose; blots with 14-3-3 isoform-specific antibodies).

| Molecule | binding |
| --- | --- |
| 14-3-3 Zeta/delta (from UniProt P63104 1-245) | binds |
| 14-3-3 epsilon (from UniProt P62258 1-255) | binds |
| 14-3-3 β/α (from UniProt P31946 1-246) | binds |
| B1 | binds |
| B2 | binds |
| B3 | binds |
